Assay results as given in article PMC2732903.

Protein sequences, listed by entry. Tags and fused reporters are not part of them. Lines headed by an entry give the natural chain unless they say otherwise; changes in a name come on top.
UniProt Q13472: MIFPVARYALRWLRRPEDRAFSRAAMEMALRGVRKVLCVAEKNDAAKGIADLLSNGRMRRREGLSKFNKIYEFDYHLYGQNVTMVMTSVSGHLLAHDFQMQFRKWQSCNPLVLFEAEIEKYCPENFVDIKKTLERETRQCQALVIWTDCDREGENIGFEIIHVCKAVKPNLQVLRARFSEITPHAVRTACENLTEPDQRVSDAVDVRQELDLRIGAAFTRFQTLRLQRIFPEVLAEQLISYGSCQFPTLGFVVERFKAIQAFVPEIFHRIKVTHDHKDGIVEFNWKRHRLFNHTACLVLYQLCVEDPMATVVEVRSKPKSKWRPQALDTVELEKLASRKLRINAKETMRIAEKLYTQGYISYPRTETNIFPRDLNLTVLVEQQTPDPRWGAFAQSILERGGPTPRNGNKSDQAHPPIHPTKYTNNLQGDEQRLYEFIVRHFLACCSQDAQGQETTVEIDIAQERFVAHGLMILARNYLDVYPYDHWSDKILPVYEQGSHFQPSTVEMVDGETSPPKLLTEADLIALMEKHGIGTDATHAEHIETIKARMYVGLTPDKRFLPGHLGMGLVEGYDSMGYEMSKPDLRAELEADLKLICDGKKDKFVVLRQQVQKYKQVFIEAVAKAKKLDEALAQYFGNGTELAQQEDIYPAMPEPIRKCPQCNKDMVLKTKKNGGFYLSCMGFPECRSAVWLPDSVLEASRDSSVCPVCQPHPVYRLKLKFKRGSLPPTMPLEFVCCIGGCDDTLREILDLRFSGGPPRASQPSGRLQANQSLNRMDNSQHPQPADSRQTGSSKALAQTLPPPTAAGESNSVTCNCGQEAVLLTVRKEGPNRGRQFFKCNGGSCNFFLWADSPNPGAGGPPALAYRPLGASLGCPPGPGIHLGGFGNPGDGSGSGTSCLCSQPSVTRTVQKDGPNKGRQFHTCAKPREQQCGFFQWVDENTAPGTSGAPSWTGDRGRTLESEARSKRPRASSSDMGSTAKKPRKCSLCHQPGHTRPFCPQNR
UniProt Q9NUX5: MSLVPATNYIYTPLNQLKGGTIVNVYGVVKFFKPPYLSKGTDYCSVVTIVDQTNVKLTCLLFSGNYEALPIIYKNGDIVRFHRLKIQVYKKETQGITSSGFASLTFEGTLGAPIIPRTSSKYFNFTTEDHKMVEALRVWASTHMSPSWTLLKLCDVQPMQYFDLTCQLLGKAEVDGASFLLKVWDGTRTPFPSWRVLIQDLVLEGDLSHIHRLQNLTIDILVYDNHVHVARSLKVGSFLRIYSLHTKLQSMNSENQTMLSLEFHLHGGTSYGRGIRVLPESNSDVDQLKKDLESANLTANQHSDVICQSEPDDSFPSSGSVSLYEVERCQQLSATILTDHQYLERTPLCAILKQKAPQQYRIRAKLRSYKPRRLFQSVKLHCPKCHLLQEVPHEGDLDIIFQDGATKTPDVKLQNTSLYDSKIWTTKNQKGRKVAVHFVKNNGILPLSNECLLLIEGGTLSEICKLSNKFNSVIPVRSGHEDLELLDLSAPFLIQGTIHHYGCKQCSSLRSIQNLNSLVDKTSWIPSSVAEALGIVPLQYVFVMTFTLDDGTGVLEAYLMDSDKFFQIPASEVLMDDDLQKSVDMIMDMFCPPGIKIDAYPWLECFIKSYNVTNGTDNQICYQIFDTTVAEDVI

How the values were obtained:
[1] = biological target: Topoisomerase IIIα (Topo III) (human) (UniProt Q13472); assay: competition with a labelled probe; details: unlabelled competitor vs 32P-S310, 21G or 24C, 50 mM HEPES pH 7.9, 100 mM NaCl, 0.1 mM EDTA, 4% sucrose, 2% glycerol, 0.1 mg/mL BSA, 0.02% bromophenol blue, 20 nM probe, room temperature 30 min, 1% agarose, 0.5X TBE, recombinant protein, label: 32P when used as probe
[2] = biological target: Topoisomerase IIIα (Topo III) (human) (UniProt Q13472); assay: EMSA; details: 50 mM HEPES pH 7.9, 100 mM NaCl, 0.1 mM EDTA, 4% sucrose, 2% glycerol, 0.1 mg/mL BSA, 0.02% bromophenol blue, 20 nM probe, room temperature 30 min, 1% agarose, 0.5X TBE, recombinant protein, folded or branched DNA
hPOT1 (human) = hPOT1 (human) (UniProt Q9NUX5); assay: EMSA; details: with telomestatin (telomestatin IC50 100 nM); 50 mM HEPES pH 7.9, 100 mM NaCl, 0.1 mM EDTA, 4% sucrose, 2% glycerol, 0.1 mg/mL BSA, 0.02% bromophenol blue, 20 nM probe, room temperature 30 min; 1% agarose, 0.5X TBE; recombinant protein; label: 32P; folded or branched DNA

Sequence: GGCTTACGGTTAGCGTTAGGG [21G mu3 (21Gmu)]
- binding result ([1]; IC50 lower than G4 oligos (4.3-10.1-fold range), single-stranded DNA): binds

Sequence: GGGTTAGGGTTAGGGTTAGGG [21G]
- binding result ([2]; with telomestatin (telomestatin IC50 300 nM), label: 32P when used as probe, unlabelled as competitor): binds more weakly
- binding result ([1]; IC50 higher than non-G4 oligos (4.3-10.1-fold range), folded or branched DNA): binds more weakly

Sequence: TTAGGGTTAGGGTTAGGGTTAGGGTT [Wt26]
- binding result ([2]; 0.1 uM telomestatin: no complex (telomestatin IC50 60 nM), label: 32P): no binding
- binding result (hPOT1 (human)): binds more weakly

For at least one entry, the source does not settle the construct or the ends of the probe. For some assays here: No signal at the amounts used counts as a negative. The comparison behind a weaker result is the experiment's own reference, which may not be listed here. For some assays here: At least one verdict rests on a figure or table, not on a statement of the authors.
